# In PubChem BioAssay AID493014 (National Center for Advancing Translational Sciences (NCATS), 2011):
# Some of the results follow. Further columns of the screen follow, without active or inactive calls. Compounds called inactive in the main read-out are mostly missing here. Words in brackets tell the shape of the fitted curve; partial curves, single points and poor fits give uncertain potencies.
# Experiment: qHTS Assay to Find Inhibitors of Chronic Active B-Cell Receptor Signaling
# Settings: ABC-DLBCL IkBa-CBG/CBR reporter, luminescence ratio (green luciferase fused to IkBa over red control in TMD8 lymphoma cells), 4 h
# Method in brief: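 Compounds up to 46 uM were incubated four hours with TMD8 cells whose green CBG68 luciferase is fused to IkappaBalpha; red CBR luminescence normalised the signal, and concentration-effect curves were fitted to fusion, red and ratio data.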
# [1] = measured here: CBR red luminescence, cell number
# [2] = measured here: IkBa-CBG green luminescence
SMILES,AC50 [1],AC50 [2]
CC(C)(C)C(=O)OC/C(N)=N/OC(=O)c1ccccc1,"7.94 µM [rising, partial curve]",
O=Cc1ccc2c(c1)CCN2Cc1ccccc1,"15.8 µM [rising, single point]",
C[C@@]12C(=O)Nc3ccc(F)cc3C(=O)N1[C@H]1c3ccccc3OC[C@@H]1[C@@H]2c1ccccc1,"2.59 µM [falling, full curve]","2.91 µM [rising, full curve, poor fit]"
CCOC(=O)CSc1nnc(-c2ccc(NS(=O)(=O)c3ccc(C)cc3)cc2)o1,"23.1 µM [falling, single point]",
COc1ccccc1CNS(=O)(=O)c1ccc2c(c1)oc(=O)n2C,"2.59 µM [falling, single point]",
CC1CCCN(S(=O)(=O)CCNC(=O)c2ccccc2)C1 (stereo not given),"14.6 µM [rising, partial curve, poor fit]",
COc1ccc(CN(C)C(=O)CCl)cc1,"17.8 µM [falling, single point]",
CCn1nnnc1NCc1ccc(OCc2c(F)cccc2Cl)c(OC)c1,"17.8 µM [falling, partial curve]",
CCCn1c(Nc2ccc(Cl)cc2)nc2ccccc21,"22.4 µM [rising, single point]",
c1ccc(-c2ccc(C3=Nn4c(Cn5nnc6ccccc65)nnc4SC3)cc2)cc1,"0.1 µM [rising, full curve, poor fit]",
Cc1nc(SCC(=O)NNC(=O)c2ccc(F)cc2)c2ccccc2n1,"25.9 µM [falling, single point]",
CCC(=O)c1ccc(/C=C/c2nc3ccccc3n2C)o1,"35.5 µM [falling, single point]",
C=CC[C@H](CC(=O)N(CCO)Cc1ccccc1)C(=O)NC[C@H](OC(=O)[C@@H](CC=C)Cc1ccc(F)cc1)c1ccccc1,"29.1 µM [falling, single point]",
Cc1nn(C)c(Oc2ccccc2)c1[N+](=O)[O-],"0.366 µM [rising, full curve]",
CC1CC(C)CN(CC(=O)N2CCOCC2)C1 (stereo not given),"12.6 µM [rising, single point]",
O=C(Nc1cccc(-c2nc3ccccc3[nH]2)c1)c1ccc(C(=O)Nc2cccc(-c3nc4ccccc4[nH]3)c2)cc1,"1.26 µM [rising, full curve, poor fit]",
O=C(CCNc1ccc(Br)cc1)c1cccc([N+](=O)[O-])c1,"35.5 µM [falling, single point]",
C=CCOc1ccc2ccccc2c1CNn1c(C)n[nH]c1=S,"2.51 µM [rising, full curve, poor fit]","12.6 µM [falling, partial curve]"

# Part of the list above in order of molar mass, largest number first.
SMILES,AC50 [1],AC50 [2]
Cc1nc(SCC(=O)NNC(=O)c2ccc(F)cc2)c2ccccc2n1,"25.9 µM [falling, single point]",
CC1CC(C)CN(CC(=O)N2CCOCC2)C1 (stereo not given),"12.6 µM [rising, single point]",
Cc1nn(C)c(Oc2ccccc2)c1[N+](=O)[O-],"0.366 µM [rising, full curve]",
